The series deals with colon. The experiment in a line: Comparative Example 2: randomized, single-blind study of L-glucose as bowel preparation before colonoscopy (GPA scale). Details: species or system human. The note with it: in vivo. As to the method:
Global Preparation Assessment
Excellent=clean colon or small volume of clear liquid
Good=moderate to large volume of clear to semiclear liquid
Fair=some semisolid stool suctioned or washed away
Poor=semisolid or solid stool unable to be suctioned or washed away
A randomized, single-blind study designed to determine the clinical effectiveness of L-glucose as a bowel preparation before colonoscopy was performed. Three dose regimens were evaluated: 24 g in the evening only, 30 g in the evening only, and 24 g in the evening followed by 12 g in the morning (36 g total). Here, Applicant's GPA scale described herein was used to evaluate the preparations. […] Clinical efficacy (defined as a combination of “excellent” and “good” assessments) for the split-dose schedule was 19/27 (70%), as compared to 7/31 (23%) in the single-dose schedule (p<0.001).
As noted above in the description of Applicant's GPA scale, the criteria for determining whether a preparation was deemed “excellent” or “good” was respectively defined as “clean colon or small volume of clear liquid” or “moderate to large volume of clear to semi-clear liquid.” These criteria are more stringent than the rating system used by Raymer et al. discussed supra since Raymer's “excellent” and “good” ratings were respectively defined as “no more than small bits of adherent fecal fluid” and “small amounts of feces or fluid not interfering with the examination.” Thus, Raymer's “excellent” rating would likely not qualify as even a “good” rating in Applicant's GPA scale.

Structures are written as SMILES.

As to `O=C[C@@H](O)[C@H](O)[C@@H](O)[C@@H](O)CO` [L-glucose], the “Ease of use of the cleansing solution, nearly all subjects” value was “easy and convenient to use”; the Taste rating result is “very pleasant to somewhat pleasant”; the “Willingness to repeat the regimen” value is recorded as “most subjects reported they were willing to repeat the regimen”.

Source of the values: US8618067B2, “L-sugar colon cleansing agent and uses thereof” (Aptalis Pharma US, Inc., priority 2009, dated 2013).
